PubChem BioAssay AID1224830 – NIAID – 2016

Assay: 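Host factors that control LPS-induced TNF expression in human macrophages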 (primary screen)
Cell system: human THP-1 monocytic leukaemia cells, TNF dual-luciferase reporter clone, PMA-differentiated to macrophage-like cells
Knock-down reagent: siRNA pool against human genes, 50 nM
Timing: LPS for 4 h, given about 3 days after siRNA transfection
Conditions: bacterial LPS (TLR4 ligand), 10 ng/ml
Read-out: 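Ratio of firefly to renilla light, scaled to the plate median and expressed as a robust z-score per replicate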
Direction: TNF reporter robust z-score: higher = stronger TNF reporter response to LPS
Hit rule: 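Each well counts as active if its z-score is over 2.8 or under -1.5; controls are left without a call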
This is a random part of about 18,000 deposited reagents. In the full data, about 2,900 (16%) were called active. 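Calls are made per well; low scores hint the gene aids the LPS response, high scores that it dampens it.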 Unmarked entries are inactive. Reagents against one gene are numbered here. Repeated entries: four replicate wells of each siRNA pool.

TNF reporter robust z-score, by target and reagent
RLN3 (GeneID 117579): #1 -0.3; #1 -0.61; #1 -1.46; #1 -1.06
DDC (GeneID 1644): #1 -0.52; #1 -0.38; #1 0.66; #1 -0.72
GRIN3A (GeneID 116443): #1 -1.19; #1 -0.12; #1 -0.79; #1 -0.2
COMMD9 (GeneID 29099): #1 0.73; #1 1.55; #1 2.86 (active); #1 2.59; #2 0.18; #2 1.24; #2 1.14; #2 0.67
FLACC1 (GeneID 130540): #1 -0.31; #1 0.31; #1 1.84; #1 0.55
TAC1 (GeneID 6863): #1 0.57; #1 -0.03; #1 0.41; #1 -0.11
CNTF (GeneID 1270): #1 -0.33; #1 0.46; #1 1.36; #1 0.02
PITPNA (GeneID 5306): #1 -0.46; #1 0.28; #1 0.86; #1 0.04
MAP2 (GeneID 4133): #1 -0.67; #1 -0.45; #1 -0.59; #1 -0.6
KCNK16 (GeneID 83795): #1 -0.77; #1 -0.65; #1 -0.6; #1 1.15
CHFR (GeneID 55743): #1 0.38; #1 -1.28; #1 -0.74; #1 0.82

Reagents above marked active, once more:
TNF reporter robust z-score, by target and reagent
COMMD9 (GeneID 29099): #1 2.86 (active)
